“And” between values parts separate entries of the source, which are not always exact repeats. Identical values can stand only once. Counter-ions that a name gives are not always drawn. Some of the results follow. This data set is noisy: repeats of one test often differ as much as different tests do.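 Human kidney-derived cells stably carry a construct in which eight TEAD-binding elements drive luciferase, measured by luminescence in a drug-repurposing library screen. A hit is any compound whose signal exceeds the plate mean by more than five robust Z scores.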
Tested on: HEK293A TEAD-LUC reporter
Test: TEAD-luciferase reporter activity (YAP activation), robust Z score vs plate; higher = stronger YAP/TEAD activation
Conditions: 24 h

SMILES	TEAD-luciferase reporter activity (compound concentration: 2 uM)	TEAD-luciferase reporter activity (compound concentration: 200 nM)	TEAD-luciferase reporter activity (compound concentration: 10 uM)
CN(C(=O)Cc1ccc(Cl)c(Cl)c1)C(CN1CCCC1)c1cccc(OCC(=O)O)c1 (stereo not given)	inactive: 1.36		
CN(C(=O)Cc1ccc(Cl)c(Cl)c1)C(CN1CCCC1)c1cccc(OCC(=O)O)c1 (stereo not given) [ICI 204,448 hydrochloride]		inactive: 0.0293	inactive: 0.764
c1cc2c(c(N3CCNCC3)c1)OCCO2 [eltoprazine]	inactive: 2.15	inactive: -0.867	inactive: -1.2
CCOP(=S)(OCC)Oc1cc(C)nc(C(C)C)n1	inactive: -0.234	inactive: 0.284	inactive: 0.61
CCCC(C)(COC(N)=O)COC(N)=O [Meprobamate (Schedule Iv)]		inactive: 1.82	inactive: 1.68
CC(C)Cn1c(=O)cc(C(=O)O[C@H]2C[C@H]3CC[C@@H](C2)N3C)c2ccccc21	inactive: -1.51	inactive: 0.526	inactive: -0.568
Cc1occc1CN1CC[C@]2(C)c3cc(O)ccc3C[C@H]1[C@H]2C	inactive: -1.33	inactive: -0.304	inactive: -0.355
COC(=O)C1C(OC(=O)c2ccccc2)CC2CCC1N2C (stereo not given)	inactive: -1.01	inactive: 2.28	inactive: 0.496
O=C(C1CCCN1C(=O)c1ccc(C(F)(F)F)cc1)N1CCC(N2CCCC2=O)CC1 (stereo not given)		inactive: -0.917	inactive: -0.666
Nc1c(Cl)cc(C(=O)NCC2CN3CCN2CC3)c2c1OCCO2 (stereo not given)	inactive: -1.57	inactive: 1.39	inactive: 0.476
NC(=O)c1cc([N+](=O)[O-])cc([N+](=O)[O-])c1 [3,5-Dinitrobenzamide]		inactive: -1.03	inactive: -0.423
NC(=O)c1cc([N+](=O)[O-])cc([N+](=O)[O-])c1 [Nitromide]	inactive: 0.961		
Cc1ccccc1CN1CCN(CCOC(c2ccccc2)c2ccccc2Cl)CC1 (stereo not given)	inactive: 0.202	inactive: -1.52	inactive: 1.77
COc1ccc(OC)c(C(O)C(C)NC(C)(C)C)c1 (stereo not given)	inactive: -1.48	inactive: -0.846	inactive: 0.519
COc1cccc(C(=O)CCNC(C)C(O)c2ccccc2)c1 (stereo not given) [Oxyfedrine hydrochloride]	inactive: 1.45	inactive: 0.507	inactive: -0.0521
CCOC(=O)c1cncn1[C@H](C)c1ccccc1 [etomidate]	inactive: -0.414		
CCOC(=O)c1cncn1[C@H](C)c1ccccc1		inactive: -1.29	inactive: -0.76
Cn1cc(C(=O)c2cccc3ccccc23)cc1C(=O)O [Napirimus]	inactive: -0.876	inactive: -0.195	inactive: -0.971
O=C1C[C@@H]2OCC=C3CN4CC[C@]56c7ccccc7N1[C@H]5[C@H]2[C@H]3C[C@H]46	inactive: -0.242	inactive: 1.9	inactive: 3
CCCN(CCC)Cc1cnc(-c2ncn3c2CN(C)C(=O)c2cc(F)ccc2-3)o1	inactive: -0.207	inactive: -0.419	inactive: -0.408
COc1cccc(C2(O)CCN(C[C@H](O)COc3cccc4[nH]ccc34)CC2)c1	inactive: -0.167	inactive: -0.663	inactive: 4.25
Cc1c(Cl)c(=O)oc2cc(OP(=O)(OCCCl)OCCCl)ccc12	inactive: -0.348	inactive: -0.706	inactive: 0.0627

SMILES	TEAD-luciferase reporter activity (compound concentration: 2 uM)	TEAD-luciferase reporter activity (compound concentration: 200 nM)	TEAD-luciferase reporter activity (compound concentration: 10 uM)
CC(=O)N(C)c1cccc(-c2ccnc3c(C(=O)c4cccs4)cnn23)c1 [Indiplon]	inactive: -0.768	inactive: -0.983	inactive: 0.547
CCCN1C[C@@H](c2ccc(N)nc2)OC[C@@H]1C	inactive: 0.257	inactive: 0.942	inactive: 2.87
CCOC(=O)CC1CCN(CCOC(c2ccccc2)c2ccccc2)CC1	inactive: -0.285	inactive: -1.2	inactive: -0.232
NC1CCN(c2cccnc2)C1 (stereo not given)	inactive: -0.0416	inactive: -0.628	inactive: -0.67
CC1(C)CCC(C)(C)c2c1cc(C(=O)Nc1cc(F)c(C(=O)O)c(F)c1)c(O)c2Cl	inactive: 2.11	inactive: 0.427	inactive: -0.345
CC[N+](C)(CC)CCOC(=O)C(O)(c1ccccc1)c1ccccc1	inactive: 0.181	inactive: -0.492	inactive: 0.402
C/C=C(\C)C(=O)O[C@@H]1C[C@H]2CC[C@@H](C1)N2C	inactive: 0.462	inactive: -0.223	inactive: -1.97
O=P(O)(NCCCl)NCCCl [Palifosfamide]	inactive: -1.45	inactive: 0.211	inactive: 0.177
O=P(O)(NCCCl)NCCCl [palifosfamide]	inactive: -0.925		
C[C@@H]1O[C@@H](O[C@@H]2C=C3CC[C@@H]4C(CC[C@]5(C)[C@@H](c6ccc(=O)oc6)CC[C@]45O)[C@@]3(C)CC2)[C@H](O)[C@H](O)[C@H]1O (stereo not given in full) [Proscillaridin]	inactive: -2.75	active: 14	inactive: 4.55
Oc1ccc2[nH]cc(CCCCN3CC=C(c4ccccc4)CC3)c2c1 [Roxindole]	inactive: -1.18	inactive: -1.17	active: 8.93
C/C=C/CC1(CC)C(=O)NC(=O)NC1=O	inactive: 0.271	inactive: -0.926	inactive: 1.74
Cl[Te-]1(Cl)(Cl)OCCO1 [2016-03-02: ammonium trichlorotellurate]		inactive: -0.546	inactive: -0.22
Cl[Te-]1(Cl)(Cl)OCCO1 [ammonium trichlorotellurate]	inactive: 2.27		
Cl[Te-]1(Cl)(Cl)OCCO1 [_:_2016-03-02: ammonium trichlorotellurate]	inactive: 0.62		
CC(C)(C)C(=O)NNCc1ccccc1	inactive: 0.728	active: 8.03	inactive: 1.38
CN1C2CCC1CC(OC(=O)C1(c3ccccc3)CCCC1)C2 (stereo not given)	inactive: -0.231	inactive: -4.15	inactive: -1.58
CCOC(=O)C1(c2ccccc2)CCN(CCc2ccc(NC(=O)C(C)N)cc2)CC1 (stereo not given)	inactive: -0.0792	inactive: 0.407	inactive: 0.444
CN(C)C[C@H]1CCCC[C@]1(O)c1cccc(O)c1 [O-Desmethyltramadol]	inactive: -0.773	inactive: 1.22	inactive: 0.24
Clc1ccc(C(OCCN2CCCCC2)c2ccccc2)cc1 (stereo not given)	inactive: 1.6	inactive: 0.621	inactive: -0.704
C#CC[C@]12CCC(=O)C=C1CC[C@@H]1[C@@H]2CC[C@]2(C)C(=O)CC[C@@H]12 [Plomestane]	inactive: -1.57	inactive: -1.14	inactive: 1.63
CNC(=O)NC(O)C(Cl)(Cl)Cl (stereo not given)	inactive: -2.15	inactive: 1.1	inactive: -0.101

SMILES	TEAD-luciferase reporter activity (compound concentration: 2 uM)	TEAD-luciferase reporter activity (compound concentration: 200 nM)	TEAD-luciferase reporter activity (compound concentration: 10 uM)
O=C(Nc1ccccc1)c1c(O)nc(S)nc1O [merbarone]	inactive: 3.93	inactive: -0.285	inactive: -0.0155
O=C(Nc1ccccc1)c1c(O)nc(S)nc1O [Merbarone]	inactive: 1.84		
CCN1[C@@H]2CC[C@H]1C[C@@H](OC(c1ccccc1)c1ccccc1)C2	inactive: -0.842	inactive: 3.97	inactive: 4.23
Clc1ccc(C2=Cc3ccccc3C3=NCCN23)cc1	inactive: 1.79	inactive: -0.317	inactive: -0.669
Oc1noc2c1CCNC2 [Gaboxadol]	inactive: 0.274	inactive: 0.578	inactive: 0.0179
O=C(NP(=O)(N1CC1)N1CC1)OCc1ccccc1	inactive: 3.37	inactive: -1.45	inactive: 4.99
CN1C2CC(OC(=O)C(CO)c3ccccc3)CC1C1OC12 (stereo not given) [scopolamine, Epiomed]	inactive: -1.35	inactive: 0.383	inactive: 2.95
O=c1[nH]c2ccccc2n1C1CCNCC1	inactive: 1.41	inactive: -0.233	inactive: -1.17
Cc1c(F)cccc1[C@H]1COC(N)=N1	inactive: -1.61	inactive: 1.44	inactive: 2.69
CC(C)n1cc2c3c(cccc31)[C@H]1C[C@@H](C(=O)N[C@H]3CCC[C@H]3O)CN(C)[C@@H]1C2	inactive: -1.69	inactive: 2.1	inactive: -0.746
COc1ccc(Cc2nccc3cc(OC)c(OC)cc23)cc1OC [papaverine, S-P]		inactive: -0.591	inactive: 4.38
COc1ccc(Cc2nccc3cc(OC)c(OC)cc23)cc1OC [papaverine]	inactive: -1.58		
Clc1ccc2c(c1)C(c1ccccc1Cl)=NCc1nncn1-2	inactive: -1.8	inactive: 2.2	inactive: 0.317
CN(C)C(=O)Oc1cc(OC(=O)N(C)C)cc(C(O)CNC(C)(C)C)c1 (stereo not given) [levobambuterol]	inactive: -0.981	inactive: 0.171	inactive: 0.303
CCC(Sc1ccccc1)C(=O)O[C@H]1C[C@H]2CC[C@@H](C1)N2C (stereo not given in full)	inactive: -1.54	inactive: -0.722	inactive: 0.843
O=C(Nc1c(Cl)cncc1Cl)C(=O)c1cn(Cc2ccc(F)cc2)c2ccc(O)cc12	inactive: 1.2 and inactive: -0.346	inactive: -1.2	inactive: 3.61
C=CCN1C[C@H](C)N([C@H](c2ccc(C(=O)N(CC)CC)cc2)c2cccc(OC)c2)C[C@H]1C	inactive: -0.142	inactive: -0.914	inactive: 2.1
C[C@H]1[C@H](N2CCS(=O)(=O)CC2)O[C@@H]2O[C@@]3(C)CC[C@H]4[C@H](C)CC[C@@H]1[C@@]24OO3	inactive: -2.36	inactive: -0.488	inactive: -0.913
C=C(Br)CC1(C(C)C)C(=O)NC(=O)NC1=O	inactive: -0.554	inactive: -1.03	inactive: -0.419
CCC(=O)O[C@](Cc1ccccc1)(c1ccccc1)[C@@H](C)CN(C)C	inactive: -0.598	inactive: -0.596	inactive: 1.83
CCOC(=O)CCN(c1nc(-c2ccc(/C(N)=N\C(=O)OCC)cc2)cs1)C1CCN(CC(=O)OCC)CC1	inactive: -0.667	inactive: -0.191	inactive: 3.25
CC(C)[C@H]1C(=O)O[C@H](C(C)C)C(=O)N(C)[C@@H](C(C)C)C(=O)O[C@H](C(C)C)C(=O)N(C)[C@@H](C(C)C)C(=O)O[C@H](C(C)C)C(=O)N1C [Enniatin B]	inactive: -0.0519	inactive: -0.811	inactive: -3

— the supplement of paper PMC10735217
